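Methionyl-tRNA synthetase (putative), Leishmania donovani (UniProt E9BF75). Primary screen of methionyl-tRNA synthetase; the read-out is not stated. The test concentration is not given. Values are per cent inhibition. Of about 68,000 compounds tested this way, about 24 (0.035%) reached 50% or more in at least one test.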

The chains behind the UniProt entries cited, without tags or fusion partners.
UniProt E9BF75, entry or part of it: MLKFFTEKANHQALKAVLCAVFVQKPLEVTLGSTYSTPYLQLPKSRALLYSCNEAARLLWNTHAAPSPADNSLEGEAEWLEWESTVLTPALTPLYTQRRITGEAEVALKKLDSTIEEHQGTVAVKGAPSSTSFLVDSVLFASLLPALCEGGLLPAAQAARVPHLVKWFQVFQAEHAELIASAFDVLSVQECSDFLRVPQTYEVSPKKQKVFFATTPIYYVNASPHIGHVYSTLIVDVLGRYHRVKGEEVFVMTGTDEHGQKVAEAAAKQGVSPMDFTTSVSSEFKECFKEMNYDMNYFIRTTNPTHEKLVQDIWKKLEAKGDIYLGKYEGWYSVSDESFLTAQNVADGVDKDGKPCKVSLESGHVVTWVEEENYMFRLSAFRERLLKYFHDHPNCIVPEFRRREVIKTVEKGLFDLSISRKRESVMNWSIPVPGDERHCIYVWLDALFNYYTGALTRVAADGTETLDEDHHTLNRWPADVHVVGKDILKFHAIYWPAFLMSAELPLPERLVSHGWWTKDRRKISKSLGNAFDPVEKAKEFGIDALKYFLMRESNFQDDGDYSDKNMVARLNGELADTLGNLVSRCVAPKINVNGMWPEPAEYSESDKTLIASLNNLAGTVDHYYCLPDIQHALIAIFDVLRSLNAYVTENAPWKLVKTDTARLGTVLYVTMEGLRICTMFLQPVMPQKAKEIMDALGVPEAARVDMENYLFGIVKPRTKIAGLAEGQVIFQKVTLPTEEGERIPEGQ

All values are in %.
The controls that fix the scale are not given in the record; negative values are as filed.
Compounds were drawn at random from those tested, without regard to their results.

compound,Inhibition
CCC(C)(COc1ncccc1Cl)NCC(=O)Nc1ccc(Br)cn1 (stereo not shown),10.95
Cc1cc2nc(C(C)C)cc(N3CCC(O)CC3)n2n1,11.11
CCOc1ncccc1CNC(=O)Nc1ccc(OC)c(OC)c1,16.48
COc1cc(CN(C)C(=O)Cc2c(C)nn(C)c2C)ccc1OC(F)F,12.39
COc1cc(C)nc(N2CCN(C(=O)CCc3cscn3)CC2)n1,13.41
c1nc2c(c(C3CC3)n1)CCN(CC1CCOC1)CC2 (stereo not shown),17.17
Fc1ccc(CN2CCC(c3n[nH]c4ncccc34)CC2)cc1F,3.846
COc1cc(C(=O)NC(C)C)nc2c(C)cc(F)cc12,8.115
Cn1cccc1C(O)CNC(=O)c1ccc(C(F)(F)F)cc1 (stereo not shown),14.37
Cc1ccc(NC(=O)[C@H]2C[C@H](C(=O)O)CN(CC(C)C)C2)cn1,11.75
CCCc1nnc(N[C@H](C)c2ccc(OC)cc2)o1,7.784
O=C(NC[C@@H]1CCCO1)c1ccc(S(=O)(=O)N[C@@H]2CCNC2)cc1,5.694
CCOc1ncccc1NC(=O)c1cc(C)sc1C,11.05
CN(C)Cc1cn2c(n1)CN(CC1CCCC1)CC2,13.4
CCOC(=O)CC1(Nc2nc(C)nc3c2cnn3C)CCCCC1,14.24
C=C(C)CN1CCC(NC(=O)c2scnc2C)CC1,19.43
CN1CC(Nc2nc3c(cnn3C(C)(C)C)c(=O)[nH]2)CCC1=O (stereo not shown),6.361
COCCN(C)C(C)c1cccc(S(N)(=O)=O)c1 (stereo not shown),22.4
Cc1ccc(CSCCn2nc3ccccn3c2=O)cc1,-1.031
COc1c(C)cnc(CSc2nnc(NC3CC3)s2)c1C,13.79
Cc1cc(C)c2[nH]c(C(=O)NCCN3CCCC3=O)c(C)c2c1,10.36
NC1(c2nc(C(F)(F)F)cc(=O)[nH]2)CCCC1,9.97
COCC(=O)N1CC[C@@H](N2CCOCC2)[C@@H]1Cc1ccccc1,9.013
CN1CCN2C(=O)N(C3CCCCC3)C[C@H]2C1,3.759
CCc1ccsc1C(=O)N1CCCN(Cc2cnn(CC)c2)CC1,18.31
O=C(NCCc1nncn1C1CC1)C1SCCc2ccccc21 (stereo not shown),15.32
CC(Cn1cccn1)NCc1csc(-c2ccc3c(c2)OCO3)n1 (stereo not shown),-1.282
Cc1cccnc1NC(=O)CC1(Cn2cnnn2)CCCCC1,13.38
COc1ccc(C(=O)N2CCO[C@H]3[C@H](OCC4CC4)CC[C@@H]32)cc1F,7.609
Cc1nn(C)c(Cl)c1CNCc1cccnc1N1CCOCC1,14.08
Cc1ccc(CC(NC(=O)CCS(C)(=O)=O)c2ccccn2)cc1 (stereo not shown),18.44
COC(=O)CCCC(=O)N1CCCCC1c1ccc(F)cc1 (stereo not shown),6.115
Cc1occc1C(=O)N1CCCN(Cc2nccn2C(C)C)CC1,20.7
CCc1nnc2n1CCN(CC(=O)Nc1sccc1C#N)C2,14.17
Cc1nc(CC(C)C)sc1C(=O)N1CCC1,5.292
Cc1cc(N2CCOC(c3ccc(N(C)C)cn3)C2)nc(N)n1 (stereo not shown),11.05
CC(NC(=O)NCCCN(C)C)c1ccc2c(c1)CCC(=O)N2 (stereo not shown),6.883
COC(=O)c1cccc(CN(C)Cc2ncnn2C)c1C#N,6.767
O=C(c1ccc(-c2ccoc2)nc1)N1CCCN(C2CCCCC2)CC1,4.556
CC(C)C1=NOC(c2nc(-c3cccc(Cl)c3)no2)C1 (stereo not shown),-2.258
CC(=O)NC1CCCN(C(=O)Nc2cccnc2-n2cccn2)C1 (stereo not shown),23.99
CN1CCN(Cc2cnc3n2CCN(C(=O)c2ccccn2)C3)CC1,11.11
CCCc1cc(=O)[nH]c(-c2cccc(CN3CCN4CCCC4C3)c2)n1 (stereo not shown),11.11
Cn1ccnc1CN1C[C@@H](CN2CCC(CO)CC2)[C@@H](CO)C1,13.41
Cc1ccc(CN2CC[C@@H](N(C)C(C)C)[C@@H]2Cc2ccccc2)o1,18.48
Cc1cnc(N2CCC3(CC2)CCN(c2cncnc2)C3=O)nc1,5.435
CC(C)Cc1noc(CN2CCN(S(C)(=O)=O)CC2)n1,15.79
NCCn1nc(C2CCN(Cc3ccccc3Cl)C2)c2nccnc21 (stereo not shown),24.6
CN1CC(C(=O)NC2(c3cccc(F)c3)CCOCC2)CC1=O (stereo not shown),20.96
COc1cccc(CCC(=O)Nc2cnc3c(c2)c(C)nn3C)c1OC,3.252
CCN(C)C1CCCc2nc(C)sc21 (stereo not shown),9.943
CC(C)c1ncncc1C(=O)N1CCN(Cc2ccsc2)CC1,15.36
CC(C)c1ccc(OCCNC(=O)N2CCS(=O)(=O)CC2)cc1,14.21
Cc1ccc(C(CNCc2cccnc2)N2CCOCC2)s1 (stereo not shown),10.44
NC(=O)N1CCCC(C(=O)Nc2cccc(Cl)c2)C1 (stereo not shown),13.98
Cc1cnc(CN(C)C2CCN(Cc3ccccc3C#N)C2)o1 (stereo not shown),6.294
N#CCc1cccc(C(=O)N2CCN(CC(O)c3ccccc3)CC2)c1 (stereo not shown),16.87
Fc1cnc(N2CCN3C[C@H](Oc4cccnc4)C[C@H]3C2)nc1,13.19
COc1ccc(C2CCCN2C(=O)NCCNc2ccccn2)cc1 (stereo not shown),21.01
CCC(C)[C@H](N)c1nnc(SCC(=O)Nc2ccc(C)cc2C)o1 (stereo partly shown),2.332
Cc1cccc(CO[C@@H]2C[C@H]3CN(c4ncccn4)CCN3C2)n1,13.41
CCOC(=O)NCCC(=O)NC(C)(C)c1ccc2c(c1)OCCO2,9.537
CN(C)c1ccc(C(=O)N2CCN(c3cnccn3)CC2)cn1,16.21
O=C(NCCOc1ccccc1)NCC(O)c1cccs1 (stereo not shown),18.65
COCCNc1c(-c2ccc(Cl)cc2)c(=O)c1=O,17
Cc1ccccc1NC(=O)N1CC[C@@H]2CN(CC(C)C)S(=O)(=O)[C@@H]2CC1,8.889
CC(C)Nc1nc(N2CCCC2)nc2c1CN(S(C)(=O)=O)CC2,8.493
CCNC(=O)N1CCC2(CC1)CCn1c(C3CC3)cnc12,6.522
CN(C)CC1CN(Cc2coc(-c3cccs3)n2)CCO1 (stereo not shown),5.594
CCc1nnc(CN2CCC(C3CCCCCN3C(=O)C3CC3)CC2)o1 (stereo not shown),11.17
O=C(Cc1ccncc1)N(CCO)CCSc1ccc(Cl)cc1,15.6
Cc1cc(CN[C@@H](Cc2ccccc2)C(N)=O)c(C)s1,6.62
CCc1noc(CN(C)C(=O)c2ccccc2-c2ncn[nH]2)n1,9.536
COc1cc(NC2CCN(C3CCS(=O)(=O)CC3)CC2)ncn1,13.91
Cc1cccnc1N1CCN(C(=O)CCc2ccccn2)CC1,7.639
Cc1cccc(C2(C(=O)NCC3CN(C)CCO3)CC2)c1 (stereo not shown),15.14
COc1cc(C)ccc1OCCC(=O)N1CCC(C(N)=O)C1 (stereo not shown),9.399
CC(C)CS(=O)(=O)CC(=O)NC1CCCCNC1=O (stereo not shown),25.57
NC(=O)C1CCN(c2nc3nccc(-c4ccncc4)c3c(=O)[nH]2)CC1,1.7
Cn1cccc1C(=O)N1CCc2onc(Cn3cccn3)c2C1,3.268
O=C(c1cccs1)N1CCC(Cn2nc(-c3ccco3)ccc2=O)CC1,20.21
Cc1cc(CCC(=O)N2CCC(O)CC2)ccc1Br,19.22
CCOc1ccc(Oc2cc(N)ccn2)cc1,11.05
Cc1cnc(C(=O)N2C[C@H]3CN(Cc4cccs4)C[C@H]3C2)cn1,18.4
O=C(CC1COCCN1)NCCc1nc(-c2ccccn2)no1 (stereo not shown),6.301
Cc1ccc(C(=O)N2CCC3(CC2)CCN(Cc2ccccn2)C3=O)o1,0
O=C(NCC1CC1)C1CCCN(c2cccc(C(F)(F)F)n2)C1 (stereo not shown),13.54
Cc1cc2n(n1)CC(CNCCNC(=O)c1ccc(F)cc1)CN2 (stereo not shown),9.239
CN(C)CC1(O)CCN(C(=O)c2ccc(-n3cccn3)cc2Cl)C1 (stereo not shown),3.75
CC(C)(C)c1cnc(CN2CCC(NC(=O)Nc3ccccc3)CC2)o1,5.16
O=C(CN1CCCNC1=O)Nc1ccccc1C(=O)C1CCCC1,13.09

The first 7 entries again:

{"compound": "CCC(C)(COc1ncccc1Cl)NCC(=O)Nc1ccc(Br)cn1", "stereo": "stereo not shown", "Inhibition": 10.95}
{"compound": "Cc1cc2nc(C(C)C)cc(N3CCC(O)CC3)n2n1", "Inhibition": 11.11}
{"compound": "CCOc1ncccc1CNC(=O)Nc1ccc(OC)c(OC)c1", "Inhibition": 16.48}
{"compound": "COc1cc(CN(C)C(=O)Cc2c(C)nn(C)c2C)ccc1OC(F)F", "Inhibition": 12.39}
{"compound": "COc1cc(C)nc(N2CCN(C(=O)CCc3cscn3)CC2)n1", "Inhibition": 13.41}
{"compound": "c1nc2c(c(C3CC3)n1)CCN(CC1CCOC1)CC2", "stereo": "stereo not shown", "Inhibition": 17.17}
{"compound": "Fc1ccc(CN2CCC(c3n[nH]c4ncccc34)CC2)cc1F", "Inhibition": 3.846}

From ChEMBL document CHEMBL3988442, “University of Dundee, Small-Polar-MMV Screening Library” (2021).